This is an account of results in PMC8523169.

For part of these data: A negative result means that nothing was seen under these conditions. For part of these data: At least one verdict rests on a figure or table, not on a statement of the authors. For part of these data: Where a protein sequence is shown, tags need not be part of it. For part of these data: A weaker result is weaker than the reference pair of the same experiment.

Data set [1] addresses T1, MatP4A K71A,Q72A,R75A,R77A (Escherichia coli) (UniProt P0A8N0).
T1 sequence (looked up): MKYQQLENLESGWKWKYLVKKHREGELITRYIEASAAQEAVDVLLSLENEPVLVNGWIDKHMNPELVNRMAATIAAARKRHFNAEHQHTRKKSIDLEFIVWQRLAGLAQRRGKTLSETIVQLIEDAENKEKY
The experiment in a line: EMSA (native PAGE). Conditions: 1 mM Mg2+, Native PAGE: 50 mM HEPES pH 7.5, 100 mM NaCl, 1 mM MgCl2, 1 mM DTT, 10% glycerol, on ice 30 min, FCS: 20 mM Tris-HCl pH 7.5, 50 mM NaCl, 0.3 mg/mL BSA, 2 mM DTT, recombinant protein, residues 1-132, protein details: C-terminal 6xHis. (A gel shift assay detects complexes by their altered migration in electrophoresis.)

In data set [2] the target is T2, MukB long hinge (LH) (Escherichia coli) (UniProt P22523).
T2 sequence (looked up): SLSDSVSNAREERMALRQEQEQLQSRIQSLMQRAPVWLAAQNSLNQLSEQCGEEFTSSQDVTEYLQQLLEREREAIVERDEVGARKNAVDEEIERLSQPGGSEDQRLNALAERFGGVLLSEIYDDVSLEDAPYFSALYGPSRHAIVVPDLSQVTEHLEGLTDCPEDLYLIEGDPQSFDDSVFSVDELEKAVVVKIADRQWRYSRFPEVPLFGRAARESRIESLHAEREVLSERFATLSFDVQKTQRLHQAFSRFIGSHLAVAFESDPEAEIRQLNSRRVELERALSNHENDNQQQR
The experiment in a line: native MS. Conditions: text says 50 bp DNA without naming which fragment; Native PAGE: 50 mM HEPES pH 7.5, 100 mM NaCl, 1 mM MgCl2, 1 mM DTT, 10% glycerol, on ice 30 min; FCS: 20 mM Tris-HCl pH 7.5, 50 mM NaCl, 0.3 mg/mL BSA, 2 mM DTT; recombinant protein; residues 568-863.

Data set [3] has as its system MukB long hinge (LH) + MatP (MatPΔ18C). The experiment in a line: native MS. As to conditions: no ternary complex, binary MatP-matS and LH-MatP seen; Native PAGE: 50 mM HEPES pH 7.5, 100 mM NaCl, 1 mM MgCl2, 1 mM DTT, 10% glycerol, on ice 30 min; FCS: 20 mM Tris-HCl pH 7.5, 50 mM NaCl, 0.3 mg/mL BSA, 2 mM DTT; recombinant protein.
Data set [4] relates to MukB long hinge (LH) + MatP (MatPΔ18C) + ParC. The data set is described as follows: native MS. As to conditions: no LH2-MatP2(-matS)-ParC2 complex; Native PAGE: 50 mM HEPES pH 7.5, 100 mM NaCl, 1 mM MgCl2, 1 mM DTT, 10% glycerol, on ice 30 min; FCS: 20 mM Tris-HCl pH 7.5, 50 mM NaCl, 0.3 mg/mL BSA, 2 mM DTT; recombinant protein.
The test system of data set [5] is MukB long hinge (LH) + MatP (MatPΔ18C). The experiment in a line: EMSA (native PAGE). Conditions: 1 mM Mg2+, no ternary complex; Native PAGE: 50 mM HEPES pH 7.5, 100 mM NaCl, 1 mM MgCl2, 1 mM DTT, 10% glycerol, on ice 30 min; FCS: 20 mM Tris-HCl pH 7.5, 50 mM NaCl, 0.3 mg/mL BSA, 2 mM DTT; recombinant protein.

On to “CAGAGTTAATCACAACGGTTCTCGATCATCAAAGAAAAACAAGCTGTGCG (double strand) [50 bp nonspecific DNA]”, for which, in data set [1] (partial ability retained), the binding result is on record as “binds more weakly”.
With “CAGAGTTAATCAGAACGGTGACAATGTCACAAAGAAAAAGAACCTGTGCG (double strand) [50 bp matS DNA]”, the binding result is recorded as “no binding” in data set [2]; “no binding” in data set [3]; “no binding” in data set [4]; “no binding” in data set [5]; “binds more weakly” in data set [1].
